# Experimental data as given in the supplement of paper PMC8728848.
# The other results are listed elsewhere or left out.
# B1: Langerin K299A/K313A (Homo sapiens), Q9UJ71 (protein)
# chain: STLNAQIPELKSDLEKASALNTKIRALQGSLENMSKLLKRQNDILQVVSQGWKYFKGNFYYFSLIPKTWYSAEQFCVSRNSHLTSVTSESEQEFLYKTAGGLIYWIGLTKAGMEGDWSWVDDTPFNKVQSARFWIPGEPNNAGNNEHCGNIAAPSLQAWNDAPCDATFLFICKRPYVPSEP
# What was measured:
# Test in all cases: glycan array binding signal (z-score within array); higher = stronger binding
# Conditions in all cases: glycan notation: IUPAC condensed, linker removed
# Neu5Ac(a2-3)GalNAc = molecular target: Neu5Ac(a2-3)GalNAc
# Method in brief: (§1)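 Arrays were curated from the Consortium for Functional Glycomics database, 3228 in total, and kept only where the protein sequence was available. Binding is expressed as a within-array Z-score. This score was averaged across arrays of the same protein sequence at different concentrations or buffers and across linkers, and negative values can be read as non-binding.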
# [1] = molecular target: Neu5Ac(a2-3)GalNAc(b1-4)GlcNAc
# Method in brief: as §1
# [2] = molecular target: Neu5Ac(a2-3)[GalNAc(b1-4)]Gal(b1-4)Glc
# Method in brief: as §1
# [3] = molecular target: Neu5Ac(a2-3)[GalNAc(b1-4)]Gal(b1-4)GlcNAc
# Method in brief: as §1
# [4] = molecular target: Neu5Ac(a2-3)[GalNAc(b1-4)]Gal(b1-4)GlcNAc(b1-3)GalNAc
# Method in brief: as §1
# [5] = molecular target: Neu5Ac(a2-3)[Neu5Ac(a2-6)]GalNAc
# Method in brief: as §1
# Neu5Ac(a2-6)Gal = molecular target: Neu5Ac(a2-6)Gal
# Method in brief: as §1
# [6] = molecular target: Neu5Ac(a2-6)Gal(b1-3)GlcNAc(b1-3)[Gal(b1-4)GlcNAc(b1-6)]Gal(b1-4)Glc
# Method in brief: as §1
# Neu5Ac(a2-6)Gal(b1-4)Glc = molecular target: Neu5Ac(a2-6)Gal(b1-4)Glc
# Method in brief: as §1
# [7] = molecular target: Neu5Ac(a2-6)Gal(b1-4)GlcNAc
# Method in brief: as §1
# [8] = molecular target: Neu5Ac(a2-6)Gal(b1-4)GlcNAc(b1-2)Man
# Method in brief: as §1
# [9] = molecular target: Neu5Ac(a2-6)Gal(b1-4)GlcNAc(b1-2)Man(a1-3)Man(b1-4)GlcNAc(b1-4)GlcNAc
# Method in brief: as §1
# [10] = molecular target: Neu5Ac(a2-6)Gal(b1-4)GlcNAc(b1-2)Man(a1-3)[Gal(b1-4)GlcNAc(b1-2)Man(a1-6)]Man(b1-4)GlcNAc(b1-4)GlcNAc
# Method in brief: as §1
# [11] = molecular target: Neu5Ac(a2-6)Gal(b1-4)GlcNAc(b1-2)Man(a1-3)[GlcNAc(b1-2)Man(a1-6)]Man(b1-4)GlcNAc(b1-4)GlcNAc
# Method in brief: as §1
# [12] = molecular target: Neu5Ac(a2-6)Gal(b1-4)GlcNAc(b1-2)Man(a1-3)[GlcNAc(b1-4)][Neu5Ac(a2-6)Gal(b1-4)GlcNAc(b1-2)Man(a1-6)]Man(b1-4)GlcNAc(b1-4)GlcNAc
# Method in brief: as §1
# [13] = molecular target: Neu5Ac(a2-6)Gal(b1-4)GlcNAc(b1-2)Man(a1-3)[Man(a1-6)]Man(b1-4)GlcNAc(b1-4)GlcNAc
# Method in brief: as §1
# [14] = molecular target: Neu5Ac(a2-6)Gal(b1-4)GlcNAc(b1-2)Man(a1-3)[Neu5Ac(a2-3)Gal(b1-4)GlcNAc(b1-2)Man(a1-6)]Man(b1-4)GlcNAc(b1-4)GlcNAc
# Method in brief: as §1
# [15] = molecular target: Neu5Ac(a2-6)Gal(b1-4)GlcNAc(b1-2)Man(a1-3)[Neu5Ac(a2-6)Gal(b1-4)GlcNAc(b1-2)Man(a1-6)]Man(b1-4)GlcNAc(b1-4)GlcNAc
# Method in brief: as §1
# [16] = molecular target: Neu5Ac(a2-6)Gal(b1-4)GlcNAc(b1-2)Man(a1-3)[Neu5Ac(a2-6)Gal(b1-4)GlcNAc(b1-2)Man(a1-6)]Man(b1-4)GlcNAc(b1-4)[Fuc(a1-6)]GlcNAc
# Method in brief: as §1
# [17] = molecular target: Neu5Ac(a2-6)Gal(b1-4)GlcNAc(b1-2)Man(a1-6)Man(b1-4)GlcNAc(b1-4)GlcNAc
# Method in brief: as §1
# [18] = molecular target: Neu5Ac(a2-6)Gal(b1-4)GlcNAc(b1-2)Man(a1-6)[Gal(b1-4)GlcNAc(b1-2)Man(a1-3)]Man(b1-4)GlcNAc(b1-4)GlcNAc
# Method in brief: as §1
# [19] = molecular target: Neu5Ac(a2-6)Gal(b1-4)GlcNAc(b1-2)Man(a1-6)[GlcNAc(b1-2)Man(a1-3)]Man(b1-4)GlcNAc(b1-4)GlcNAc
# Method in brief: as §1
# [20] = molecular target: Neu5Ac(a2-6)Gal(b1-4)GlcNAc(b1-2)Man(a1-6)[Man(a1-3)]Man(b1-4)GlcNAc(b1-4)GlcNAc
# Method in brief: as §1
# [21] = molecular target: Neu5Ac(a2-6)Gal(b1-4)GlcNAc(b1-2)[Neu5Ac(a2-6)Gal(b1-4)GlcNAc(b1-4)]Man(a1-3)[GlcNAc(b1-4)][Neu5Ac(a2-6)Gal(b1-4)GlcNAc(b1-2)[Neu5Ac(a2-6)Gal(b1-4)GlcNAc(b1-6)]Man(a1-6)]Man(b1-4)GlcNAc(b1-4)GlcNAc
# Method in brief: as §1
# [22] = molecular target: Neu5Ac(a2-6)Gal(b1-4)GlcNAc(b1-2)[Neu5Ac(a2-6)Gal(b1-4)GlcNAc(b1-4)]Man(a1-3)[GlcNAc(b1-4)][Neu5Ac(a2-6)Gal(b1-4)GlcNAc(b1-4)Man(a1-6)]Man(b1-4)GlcNAc(b1-4)GlcNAc
# Method in brief: as §1
# [23] = molecular target: Neu5Ac(a2-6)Gal(b1-4)GlcNAc(b1-2)[Neu5Ac(a2-6)Gal(b1-4)GlcNAc(b1-6)]Man(a1-6)[Neu5Ac(a2-6)Gal(b1-4)GlcNAc(b1-2)Man(a1-3)][GlcNAc(b1-4)]Man(b1-4)GlcNAc(b1-4)GlcNAc
# Method in brief: as §1
# [24] = molecular target: Neu5Ac(a2-6)Gal(b1-4)GlcNAc(b1-3)Gal(b1-3)GlcNAc
# Method in brief: as §1
# [25] = molecular target: Neu5Ac(a2-6)Gal(b1-4)GlcNAc(b1-3)Gal(b1-4)GlcNAc
# Method in brief: as §1
# [26] = molecular target: Neu5Ac(a2-6)Gal(b1-4)GlcNAc(b1-3)Gal(b1-4)GlcNAc(b1-2)Man(a1-3)[Neu5Ac(a2-6)Gal(b1-4)GlcNAc(b1-3)Gal(b1-4)GlcNAc(b1-2)Man(a1-6)]GalNAc
# Method in brief: as §1
# [27] = molecular target: Neu5Ac(a2-6)Gal(b1-4)GlcNAc(b1-3)Gal(b1-4)GlcNAc(b1-3)Gal(b1-4)GlcNAc
# Method in brief: as §1
# [28] = molecular target: Neu5Ac(a2-6)Gal(b1-4)GlcNAc(b1-3)Gal(b1-4)GlcNAc(b1-3)Gal(b1-4)GlcNAc(b1-2)Man(a1-3)[Neu5Ac(a2-6)Gal(b1-4)GlcNAc(b1-3)Gal(b1-4)GlcNAc(b1-3)Gal(b1-4)GlcNAc(b1-2)Man(a1-6)]GalNAc
# Method in brief: as §1
# [29] = molecular target: Neu5Ac(a2-6)Gal(b1-4)GlcNAc(b1-3)Gal(b1-4)GlcNAc(b1-3)GalNAc
# Method in brief: as §1
# [30] = molecular target: Neu5Ac(a2-6)Gal(b1-4)GlcNAc(b1-3)Gal(b1-4)GlcNAc(b1-3)[Neu5Ac(a2-6)Gal(b1-4)GlcNAc(b1-3)Gal(b1-4)GlcNAc(b1-6)]GalNAc
# Method in brief: as §1
# [31] = molecular target: Neu5Ac(a2-6)Gal(b1-4)GlcNAc(b1-3)Gal(b1-4)GlcNAc(b1-6)[Gal(b1-3)]GalNAc
# Method in brief: as §1
# [32] = molecular target: Neu5Ac(a2-6)Gal(b1-4)GlcNAc(b1-3)Gal(b1-4)[Fuc(a1-3)]GlcNAc(b1-3)Gal(b1-4)[Fuc(a1-3)]GlcNAc
# Method in brief: as §1
# [33] = molecular target: Neu5Ac(a2-6)Gal(b1-4)GlcNAc(b1-3)GalNAc
# Method in brief: as §1
# [34] = molecular target: Neu5Ac(a2-6)Gal(b1-4)GlcNAc(b1-3)[Neu5Ac(a2-6)Gal(b1-4)GlcNAc(b1-6)]GalNAc
# Method in brief: as §1
# [35] = molecular target: Neu5Ac(a2-6)Gal(b1-4)GlcNAc(b1-6)GalNAc
# Method in brief: as §1
# [36] = molecular target: Neu5Ac(a2-6)Gal(b1-4)GlcNAc(b1-6)[Gal(b1-3)GlcNAc(b1-3)]Gal(b1-4)Glc
# Method in brief: as §1
# [37] = molecular target: Neu5Ac(a2-6)Gal(b1-4)GlcNAc(b1-6)[Gal(b1-3)]GalNAc
# Method in brief: as §1
# [38] = molecular target: Neu5Ac(a2-6)Gal(b1-4)GlcNAc6S
# Method in brief: as §1
# Neu5Ac(a2-6)GalNAc = molecular target: Neu5Ac(a2-6)GalNAc
# Method in brief: as §1
# [39] = molecular target: Neu5Ac(a2-6)GalNAc(b1-4)GlcNAc
# Method in brief: as §1
# [40] = molecular target: Neu5Ac(a2-6)GalNAc(b1-4)GlcNAc6S
# Method in brief: as §1
# [41] = molecular target: Neu5Ac(a2-6)GlcNAc(b1-4)GlcNAc
# Method in brief: as §1
binder,measurement,setting,value
B1,glycan array binding signal (z-score),Neu5Ac(a2-3)GalNAc,-0.957
same,glycan array binding signal (z-score),[1],-1.09
same,glycan array binding signal (z-score),[2],-0.76
same,glycan array binding signal (z-score),[3],-0.463
same,glycan array binding signal (z-score),[4],0.982
same,glycan array binding signal (z-score),[5],-0.582
same,glycan array binding signal (z-score),Neu5Ac(a2-6)Gal,0.01
same,glycan array binding signal (z-score),[6],0.329
same,glycan array binding signal (z-score),Neu5Ac(a2-6)Gal(b1-4)Glc,0.274
same,glycan array binding signal (z-score),[7],-0.562
same,glycan array binding signal (z-score),[8],0.121
same,glycan array binding signal (z-score),[9],0.243
same,glycan array binding signal (z-score),[10],-1.06
same,glycan array binding signal (z-score),[11],-1.05
same,glycan array binding signal (z-score),[12],-1.33
same,glycan array binding signal (z-score),[13],0.566
same,glycan array binding signal (z-score),[14],0.009
same,glycan array binding signal (z-score),[15],-0.141
same,glycan array binding signal (z-score),[16],3.07
same,glycan array binding signal (z-score),[17],-1.29
same,glycan array binding signal (z-score),[18],-0.35
same,glycan array binding signal (z-score),[19],-0.799
same,glycan array binding signal (z-score),[20],0.436
same,glycan array binding signal (z-score),[21],-1.17
same,glycan array binding signal (z-score),[22],-0.195
same,glycan array binding signal (z-score),[23],-0.422
same,glycan array binding signal (z-score),[24],-0.216
same,glycan array binding signal (z-score),[25],-0.894
same,glycan array binding signal (z-score),[26],0.986
same,glycan array binding signal (z-score),[27],-0.708
same,glycan array binding signal (z-score),[28],1.82
same,glycan array binding signal (z-score),[29],-0.902
same,glycan array binding signal (z-score),[30],-0.095
same,glycan array binding signal (z-score),[31],-0.091
same,glycan array binding signal (z-score),[32],-0.9
same,glycan array binding signal (z-score),[33],0.288
same,glycan array binding signal (z-score),[34],-0.504
same,glycan array binding signal (z-score),[35],0.715
same,glycan array binding signal (z-score),[36],-0.74
same,glycan array binding signal (z-score),[37],-0.308
same,glycan array binding signal (z-score),[38],-1.54
same,glycan array binding signal (z-score),Neu5Ac(a2-6)GalNAc,-0.621
same,glycan array binding signal (z-score),[39],-1.13
same,glycan array binding signal (z-score),[40],-0.373
same,glycan array binding signal (z-score),[41],-0.867

# Rewritten with tabs: entries from further up
binder	measurement	setting	value
B1	glycan array binding signal (z-score)	Neu5Ac(a2-6)Gal	0.01
same	glycan array binding signal (z-score)	[6]	0.329
same	glycan array binding signal (z-score)	Neu5Ac(a2-6)Gal(b1-4)Glc	0.274
